PubChem BioAssay AID1053208 – Peter MacCallum Cancer Centre | 2014

Screen: 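Find knock-downs that sensitise mouse osteosarcoma cells to doxorubicin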 (primary screen)
Cells: mouse osteosarcoma cells, early-passage culture from an engineered mouse model of fibroblastic bone tumour
Reagent: siRNA pool against mouse genes, 40 nM
Time to read-out: about 120 h (48 h before drug, then 72 h with drug)
Treatment: doxorubicin 100 nM for 72 h, roughly 30-40% inhibitory dose
Detection: 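Viability read as ATP luminescence after 72 h of 100 nM doxorubicin or none, duplicate wells averaged, scaled to non-targeting siRNA, then expressed as robust z-scores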
Scale: viability z-score with doxorubicin and doxorubicin viability vs non-targeting: higher = more viable cells under doxorubicin; viability z-score without drug: higher = more viable cells with knock-down alone; z-score of drug to no-drug ratio: higher = less drug sensitisation by knock-down
Call rule: 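a pool counts as active when its viability z-score with doxorubicin is -2 or below and its z-score without drug lies between -2 and 2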
In all, the deposit lists about 17,000 reagents; shown is a part drawn at random. 788 of them (4.7%) were called active. 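Calls rest on z-score classes alone; an extra cut-off of viability at most 70% of control was not applied to them.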 Entries without a mark were called inactive.

The first 4 records as a preview:
Target gene | combined z-score class | viability z-score with doxorubicin | viability z-score without drug | z-score of drug to no-drug ratio | doxorubicin viability vs non-targeting
Scoc | no change with or without drug | -0.22 | 0.84 | -0.67 | 0.92
Prom1 | no change with or without drug | 0.79 | 0.51 | 0.56 | 1.01
Fbln5 | low cell count with doxorubicin only (active) | -2.02 | -0.34 | -1.8 | 0.76
Cx3cl1 | no change with or without drug | -0.79 | -1.85 | 0.67 | 0.87

The list itself, from the first entry:
Target gene | combined z-score class | viability z-score with doxorubicin | viability z-score without drug | z-score of drug to no-drug ratio | doxorubicin viability vs non-targeting
Scoc | no change with or without drug | -0.22 | 0.84 | -0.67 | 0.92
Prom1 | no change with or without drug | 0.79 | 0.51 | 0.56 | 1.01
Fbln5 | low cell count with doxorubicin only (active) | -2.02 | -0.34 | -1.8 | 0.76
Cx3cl1 | no change with or without drug | -0.79 | -1.85 | 0.67 | 0.87
Fat1 | no change with or without drug | -0.79 | -1.52 | 0.34 | 0.87
Mtx1 | high cell count with doxorubicin only | 2.25 | 0.17 | 2.36 | 1.14
Hpdl | no change with or without drug | -1.8 | -0.84 | -1.24 | 0.78
Stam2 | no change with or without drug | -0.22 | 1.35 | -1.01 | 0.92
Myl6 | no change with or without drug | 0.67 | -0.17 | 0.9 | 1
Ssx2ip | no change with or without drug | 0.22 | -0.34 | 0.56 | 0.96
Srgn | no change with or without drug | 0 | 1.18 | -0.67 | 0.94
Dnaaf4 | no change with or without drug | -1.12 | 1.18 | -1.8 | 0.84
Kat14 | no change with or without drug | 0.9 | 1.18 | 0.22 | 1.02
Zfp696 | no change with or without drug | 0 | 0.17 | 0 | 0.94
Spaar | no change with or without drug | -1.57 | 0.84 | -2.02 | 0.8
Rsph3a | no change with or without drug | 0.34 | 1.85 | -0.67 | 0.97
Or1e21 | no change with or without drug | -0.45 | 1.18 | -1.12 | 0.9
Or2ag19 | no change with or without drug | -1.69 | -1.01 | -1.01 | 0.79
Slc22a20 | no change with or without drug | 1.35 | 0 | 1.57 | 1.06
Ndufa3 | no change with or without drug | -0.22 | -1.52 | 1.01 | 0.92
Arhgap11a | no change with or without drug | 0.34 | -0.34 | 0.67 | 0.97
Gzf1 | no change with or without drug | 0.45 | 1.18 | -0.22 | 0.98
Or8s10 | no change with or without drug | 0.22 | -1.18 | 1.24 | 0.96
Dnah2 | no change with or without drug | -1.69 | -1.52 | -0.67 | 0.79
Zfp947 | no change with or without drug | -0.22 | -0.67 | 0.34 | 0.92
Kng2 | no change with or without drug | -0.45 | 0 | -0.34 | 0.9
Oscp1 | no change with or without drug | 0.67 | 0.84 | 0.22 | 1
Cacna1e | no change with or without drug | 0.56 | 0 | 0.67 | 0.99
Rgs19 | no change with or without drug | 0.34 | -1.35 | 1.46 | 0.97
Hspa2 | no change with or without drug | -1.12 | -0.67 | -0.67 | 0.84
Slc5a5 | no change with or without drug | 0.34 | 1.18 | -0.34 | 0.97
Galr2 | no change with or without drug | -0.67 | -1.52 | 0.45 | 0.88
Btg3 | no change with or without drug | 1.35 | 0.51 | 1.12 | 1.06
Tssk6 | no change with or without drug | 1.12 | 1.18 | 0.45 | 1.04
C4a | no change with or without drug | 1.46 | 0.34 | 1.35 | 1.07
Tbpl1 | no change with or without drug | -0.22 | 0.84 | -0.67 | 0.92
Rsph1 | no change with or without drug | -1.35 | -0.17 | -1.24 | 0.82
Pcp2 | no change with or without drug | -0.45 | 0.34 | -0.56 | 0.9
DLC1 | no change with or without drug | 0 | 1.35 | -0.79 | 0.94
Zbed3 | no change with or without drug | 1.57 | 1.18 | 0.9 | 1.08
Hoxb9 | no change with or without drug | -0.45 | -0.17 | -0.22 | 0.9
Col6a2 | high cell count with doxorubicin only | 2.92 | 0.34 | 2.92 | 1.2
Bet1 | no change with or without drug | -0.22 | 0.17 | -0.22 | 0.92
Masp1 | no change with or without drug | 0 | -0.17 | 0.22 | 0.94
A430090L17Rik | no change with or without drug | -0.56 | -1.85 | 0.9 | 0.89
Slc2a12 | no change with or without drug | -0.45 | -0.84 | 0.22 | 0.9
Arhgef6 | no change with or without drug | -0.79 | 1.18 | -1.46 | 0.87
Hbegf | no change with or without drug | -1.01 | 0.17 | -1.01 | 0.85
Ptcd3 | no change with or without drug | -0.11 | 0.51 | -0.34 | 0.93
Sat1 | no change with or without drug | -0.11 | 1.18 | -0.79 | 0.93
Endod1 | no change with or without drug | -1.57 | -0.17 | -1.46 | 0.8
Prr18 | low cell count with doxorubicin only (active) | -4.05 | -0.51 | -3.93 | 0.58
Fam234b | no change with or without drug | 0.34 | -0.51 | 0.79 | 0.97
Rgs6 | low cell count without drug only | -0.67 | -2.7 | 1.46 | 0.88
Sytl3 | no change with or without drug | 0.67 | -0.84 | 1.46 | 1
Mcpt9 | low cell count with doxorubicin only (active) | -2.14 | -1.18 | -1.46 | 0.75
Prpf6 | no change with or without drug | 1.8 | 0.17 | 1.91 | 1.1
Or51ai2 | no change with or without drug | 1.12 | 0 | 1.24 | 1.04
Fgl2 | no change with or without drug | -1.12 | 0 | -1.12 | 0.84
Ndufc1 | no change with or without drug | -0.45 | 0.17 | -0.45 | 0.9
Zfp97 | high cell count without drug only | 1.69 | 3.04 | -0.22 | 1.09
Arpc5l | no change with or without drug | -0.67 | -0.17 | -0.45 | 0.88
Zfp748 | low cell count without drug only | -0.22 | -3.54 | 2.92 | 0.92
